# From the supplement of paper PMC8728848
# Some of the results follow.
# What was measured:
# Assay in all cases: glycan array binding signal (z-score within array); higher = stronger binding
# Conditions in all cases: glycan notation: IUPAC condensed, linker removed
# [1] = target: Fuc(a1-2)Gal
# Summary of the method: (§1)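 The binding signal is a Z-score computed within each array and averaged over linkers. Arrays of the same protein sequence at different concentrations or buffers were also averaged together. Data originate from 3228 arrays in the Consortium for Functional Glycomics database, kept only where the protein sequence was available.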
# [2] = target: Fuc(a1-2)Gal(b1-3)GalNAc
# Summary of the method: as §1
# [3] = target: Fuc(a1-2)Gal(b1-3)GalNAc(a1-3)[Fuc(a1-2)]Gal(b1-4)Glc
# Summary of the method: as §1
# [4] = target: Fuc(a1-2)Gal(b1-3)GalNAc(a1-3)[Fuc(a1-2)]Gal(b1-4)GlcNAc
# Summary of the method: as §1
# [5] = target: Fuc(a1-2)Gal(b1-3)GalNAc(b1-3)Gal
# Summary of the method: as §1
# [6] = target: Fuc(a1-2)Gal(b1-3)GalNAc(b1-3)Gal(a1-4)Gal(b1-4)Glc
# Summary of the method: as §1
# [7] = target: Fuc(a1-2)Gal(b1-3)GalNAc(b1-4)[Neu5Ac(a2-3)]Gal(b1-4)Glc
# Summary of the method: as §1
# [8] = target: Fuc(a1-2)Gal(b1-3)GlcNAc
# Summary of the method: as §1
# [9] = target: Fuc(a1-2)Gal(b1-3)GlcNAc(b1-2)Man(a1-3)[Fuc(a1-2)Gal(b1-3)GlcNAc(b1-2)Man(a1-6)]Man(b1-4)GlcNAc(b1-4)GlcNAc
# Summary of the method: as §1
# [10] = target: Fuc(a1-2)Gal(b1-3)GlcNAc(b1-2)Man(a1-3)[Fuc(a1-2)Gal(b1-3)GlcNAc(b1-2)Man(a1-6)]Man(b1-4)GlcNAc(b1-4)[Fuc(a1-6)]GlcNAc
# Summary of the method: as §1
# [11] = target: Fuc(a1-2)Gal(b1-3)GlcNAc(b1-3)Gal(b1-4)Glc
# Summary of the method: as §1
# [12] = target: Fuc(a1-2)Gal(b1-3)GlcNAc(b1-3)GalNAc
# Summary of the method: as §1
# [13] = target: Fuc(a1-2)Gal(b1-3)GlcNAc(b1-3)[Fuc(a1-2)Gal(b1-3)GlcNAc(b1-6)]GalNAc
# Summary of the method: as §1
# [14] = target: Fuc(a1-2)Gal(b1-3)GlcNAc(b1-3)[Gal(b1-4)GlcNAc(b1-6)]Gal(b1-4)Glc
# Summary of the method: as §1
# [15] = target: Fuc(a1-2)Gal(b1-3)GlcNAc(b1-3)[Neu5Ac(a2-6)Gal(b1-4)GlcNAc(b1-6)]Gal(b1-4)Glc
# Summary of the method: as §1
# [16] = target: Fuc(a1-2)Gal(b1-3)GlcNAc6S
# Summary of the method: as §1
# [17] = target: Fuc(a1-2)Gal(b1-3)[Fuc(a1-4)]GlcNAc
# Summary of the method: as §1
# [18] = target: Fuc(a1-2)Gal(b1-3)[Fuc(a1-4)]GlcNAc(b1-2)Man(a1-3)[Fuc(a1-2)Gal(b1-3)[Fuc(a1-4)]GlcNAc(b1-2)Man(a1-3)]Man(b1-4)GlcNAc(b1-4)GlcNAc
# Summary of the method: as §1
# [19] = target: Fuc(a1-2)Gal(b1-3)[Fuc(a1-4)]GlcNAc(b1-2)Man(a1-3)[Fuc(a1-2)Gal(b1-3)[Fuc(a1-4)]GlcNAc(b1-2)Man(a1-6)]Man(b1-4)GlcNAc(b1-4)[Fuc(a1-6)]GlcNAc(b1-4)[Fuc(a1-6)]GlcNAc
# Summary of the method: as §1
# [20] = target: Fuc(a1-2)Gal(b1-3)[Fuc(a1-4)]GlcNAc(b1-3)[Fuc(a1-3)[Gal(b1-4)]GlcNAc(b1-6)]Gal(b1-4)Glc
# Summary of the method: as §1
# [21] = target: Fuc(a1-2)Gal(b1-3)[Fuc(a1-4)]GlcNAc(b1-3)[Gal(b1-4)GlcNAc(b1-6)]Gal(b1-4)Glc
# Summary of the method: as §1
# [22] = target: Fuc(a1-2)Gal(b1-4)Glc
# Summary of the method: as §1
# [23] = target: Fuc(a1-2)Gal(b1-4)Glc6S
# Summary of the method: as §1
# [24] = target: Fuc(a1-2)Gal(b1-4)GlcNAc
# Summary of the method: as §1
# [25] = target: Fuc(a1-2)Gal(b1-4)GlcNAc(b1-2)Man
# Summary of the method: as §1
# [26] = target: Fuc(a1-2)Gal(b1-4)GlcNAc(b1-2)Man(a1-3)[Fuc(a1-2)Gal(b1-4)GlcNAc(b1-2)Man(a1-6)]Man(b1-4)GlcNAc(b1-4)GlcNAc
# Summary of the method: as §1
# [27] = target: Fuc(a1-2)Gal(b1-4)GlcNAc(b1-2)Man(a1-3)[Fuc(a1-2)Gal(b1-4)GlcNAc(b1-2)Man(a1-6)]Man(b1-4)GlcNAc(b1-4)[Fuc(a1-6)]GlcNAc
# Summary of the method: as §1
# [28] = target: Fuc(a1-2)Gal(b1-4)GlcNAc(b1-2)[Fuc(a1-2)Gal(b1-4)GlcNAc(b1-4)]Man(a1-3)[Fuc(a1-2)Gal(b1-4)GlcNAc(b1-2)Man(a1-6)]Man(b1-4)GlcNAc(b1-4)GlcNAc
# Summary of the method: as §1
# [29] = target: Fuc(a1-2)Gal(b1-4)GlcNAc(b1-3)Gal(b1-4)GlcNAc
# Summary of the method: as §1
# [30] = target: Fuc(a1-2)Gal(b1-4)GlcNAc(b1-3)Gal(b1-4)GlcNAc(b1-2)Man(a1-3)[Fuc(a1-2)Gal(b1-4)GlcNAc(b1-3)Gal(b1-4)GlcNAc(b1-2)Man(a1-6)]Man(b1-4)GlcNAc(b1-4)GlcNAc
# Summary of the method: as §1
# [31] = target: Fuc(a1-2)Gal(b1-4)GlcNAc(b1-3)Gal(b1-4)GlcNAc(b1-3)Gal(b1-4)GlcNAc
# Summary of the method: as §1
# [32] = target: Fuc(a1-2)Gal(b1-4)GlcNAc(b1-3)GalNAc
# Summary of the method: as §1
# [33] = target: Fuc(a1-2)Gal(b1-4)GlcNAc(b1-3)[Fuc(a1-2)Gal(b1-4)GlcNAc(b1-6)]GalNAc
# Summary of the method: as §1
# [34] = target: Fuc(a1-2)Gal(b1-4)GlcNAc(b1-3)[Fuc(a1-3)[Gal(b1-4)]GlcNAc(b1-6)]Gal(b1-4)Glc
# Summary of the method: as §1
# [35] = target: Fuc(a1-2)Gal(b1-4)GlcNAc(b1-6)GalNAc
# Summary of the method: as §1
# [36] = target: Fuc(a1-2)Gal(b1-4)GlcNAc6S
# Summary of the method: as §1
# [37] = target: Fuc(a1-2)Gal(b1-4)[Fuc(a1-3)]GlcNAc
# Summary of the method: as §1
binder,measurement,setting,value
PX9961K-bvu-480-28-480 (Bacteroides vulgatus) (protein) NKIPTTMAFRTVTDVDNAVNGLYDLMSGSGYYGAAMFAYGDMKGDDMQSSEESGVCNTCYMFNHRPNSLNAGSLWGRPFYILREAWNILNAIAEGKIESGDEKKLNALKGETMAVIALCQFDLTRCFGYPYTKDKGASLGAPLIDHLVGTYENPPRSTVAQAYDFIIETLEEAVTLMSEEKNNGRMNKYAARALLARIYLYHDDNRKAFDLADQLIKDADTSGSYALYPHEKYVAAWSVEAKFGSESFFEIANSVDDTPGRDSWGYLLNWYGYQKGFVTQKYAEQMLADPGDVRGHLLEENKYAGKTVWWLYKLRGTDLKTAPLECNNVVLRLSEVYLIAAEAGCKLGGDAAVQGLGYLNEIVKRGNPDNEVTMADYTLDRVLDERSKELVGEGHRFFDLLRNGKTIVRKGGYHLPSVDEEVDWDFYKCVLPIPEDQFIFSPEMEQNPGYPKN,glycan array binding signal (z-score),[1],-0.335
same,glycan array binding signal (z-score),[2],-0.167
same,glycan array binding signal (z-score),[3],0.011
same,glycan array binding signal (z-score),[4],-0.747
same,glycan array binding signal (z-score),[5],-0.419
same,glycan array binding signal (z-score),[6],0.467
same,glycan array binding signal (z-score),[7],-0.817
same,glycan array binding signal (z-score),[8],-0.667
same,glycan array binding signal (z-score),[9],-0.169
same,glycan array binding signal (z-score),[10],0.147
same,glycan array binding signal (z-score),[11],-0.662
same,glycan array binding signal (z-score),[12],-0.676
same,glycan array binding signal (z-score),[13],0.119
same,glycan array binding signal (z-score),[14],-0.551
same,glycan array binding signal (z-score),[15],-0.084
same,glycan array binding signal (z-score),[16],-0.581
same,glycan array binding signal (z-score),[17],-0.319
same,glycan array binding signal (z-score),[18],1.11
same,glycan array binding signal (z-score),[19],-0.657
same,glycan array binding signal (z-score),[20],-0.282
same,glycan array binding signal (z-score),[21],0.544
same,glycan array binding signal (z-score),[22],-0.656
same,glycan array binding signal (z-score),[23],0.129
same,glycan array binding signal (z-score),[24],0.174
same,glycan array binding signal (z-score),[25],-0.528
same,glycan array binding signal (z-score),[26],-0.758
same,glycan array binding signal (z-score),[27],0.247
same,glycan array binding signal (z-score),[28],0.463
same,glycan array binding signal (z-score),[29],-0.853
same,glycan array binding signal (z-score),[30],0.939
same,glycan array binding signal (z-score),[31],0.271
same,glycan array binding signal (z-score),[32],-0.27
same,glycan array binding signal (z-score),[33],0.582
same,glycan array binding signal (z-score),[34],-0.486
same,glycan array binding signal (z-score),[35],0.033
same,glycan array binding signal (z-score),[36],0.071
same,glycan array binding signal (z-score),[37],-0.448

# Rewritten with tabs: entries from further up.
binder	measurement	setting	value
PX9961K-bvu-480-28-480 (Bacteroides vulgatus) (protein) NKIPTTMAFRTVTDVDNAVNGLYDLMSGSGYYGAAMFAYGDMKGDDMQSSEESGVCNTCYMFNHRPNSLNAGSLWGRPFYILREAWNILNAIAEGKIESGDEKKLNALKGETMAVIALCQFDLTRCFGYPYTKDKGASLGAPLIDHLVGTYENPPRSTVAQAYDFIIETLEEAVTLMSEEKNNGRMNKYAARALLARIYLYHDDNRKAFDLADQLIKDADTSGSYALYPHEKYVAAWSVEAKFGSESFFEIANSVDDTPGRDSWGYLLNWYGYQKGFVTQKYAEQMLADPGDVRGHLLEENKYAGKTVWWLYKLRGTDLKTAPLECNNVVLRLSEVYLIAAEAGCKLGGDAAVQGLGYLNEIVKRGNPDNEVTMADYTLDRVLDERSKELVGEGHRFFDLLRNGKTIVRKGGYHLPSVDEEVDWDFYKCVLPIPEDQFIFSPEMEQNPGYPKN	glycan array binding signal (z-score)	[20]	-0.282
same	glycan array binding signal (z-score)	[21]	0.544
